Reference: article PMC7878863
Results are given in words; binding and its absence hold for the method and conditions named. Binding seen in cells or lysates may run through a third protein. Some entries that bind do so weakly or less than the wild type. Where a sequence is shown, tags or fusion partners need not be part of it.

By UniProt entry, the sequences of proteins in these tests, tags left out. Residues count along the entry.
UniProt P02545, residues 1-646: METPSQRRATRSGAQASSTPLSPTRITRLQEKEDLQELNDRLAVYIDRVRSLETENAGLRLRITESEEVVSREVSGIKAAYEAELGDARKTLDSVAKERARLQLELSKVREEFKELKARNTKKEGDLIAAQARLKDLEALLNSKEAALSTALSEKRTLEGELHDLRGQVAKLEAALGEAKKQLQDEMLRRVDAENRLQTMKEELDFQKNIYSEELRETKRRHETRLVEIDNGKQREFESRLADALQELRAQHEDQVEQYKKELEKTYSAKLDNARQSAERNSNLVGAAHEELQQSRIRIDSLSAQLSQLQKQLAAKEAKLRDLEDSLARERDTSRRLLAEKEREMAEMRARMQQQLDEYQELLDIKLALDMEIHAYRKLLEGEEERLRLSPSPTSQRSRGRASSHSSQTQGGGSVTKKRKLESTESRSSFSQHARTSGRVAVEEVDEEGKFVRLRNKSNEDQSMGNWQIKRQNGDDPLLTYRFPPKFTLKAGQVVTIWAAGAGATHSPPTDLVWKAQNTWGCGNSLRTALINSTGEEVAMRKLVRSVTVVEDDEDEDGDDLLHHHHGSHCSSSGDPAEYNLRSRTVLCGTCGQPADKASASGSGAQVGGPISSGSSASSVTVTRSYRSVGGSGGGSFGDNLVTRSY

Target: T1, YFP-SPANX-A (human) (UniProt Q9NS26)
T1 sequence: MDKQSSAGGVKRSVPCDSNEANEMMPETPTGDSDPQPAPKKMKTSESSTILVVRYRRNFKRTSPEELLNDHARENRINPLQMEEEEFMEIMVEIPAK
Assay: co-IP; YFP-SPANX-A immune complexes from transfected A375 cells, western blot for Lamin A/C (N = 3)

For “Lamin-A/C (LMNA) (from UniProt P02545 1-646)”, the binding was “binds”.
